Measurements reported in patent publication US7465738B2, “Compounds useful as promoters of SMN2” (Vertex Pharmaceuticals Incorporated, priority 2003, dated 2008).
At least one compound was matched to its structure with a doubt left.

System: SMN2 promoter
Test: SMN2 promoter-β-lactamase (BLA) assay in NSC-34 cells
Type: cell-based, mouse
Settings: 15 NSC-34 SMN2-promoter-BLA clones with low BLA activity
Source text: Compounds were screened for their ability to increase SMN2 gene transcription. In general the screening method of the invention involves the use of an SMN2 promoter-β-lactamase (BLA) assay in NSC-34 cells. […] This construct was transfected into the NSC-34 cells and a stable pool of SMN2-promoter-BLA cells was generated. […] Optimized protocols are presented in the procedures below. […] Subculture Protocol for and the […]-Bla Cell Line (#5.3) and the SMN2 Promoter-Bla Cell Line (#11). […] Cells were kept at a density between 50,000 and 500,000/ml and were fed every three days with DMEM 5% FCS and incubated at 37° C., 5% CO2 and 90% humidity. • b. Cells were then plated at low density (50,000 cells/ml). • c. […] Cells were fed by manually pipetting the cells, and passaging the cells 1 to 10 to a new flask. […] Standard Assay Protocol #1 for SMN2 Promoter Assays in 96-Well Plates: • e. […] Assay plates were read on a fluorimeter (for example, the Cytofluor 4000 from Perceptive Biosystems) using the following two settings: 460/40 nm emission with 395/25 nm excitation, and 530/25 nm emission with 395/25 nm excitation. • k. […] Assay plates were read on a fluorimeter (for example, the Cytofluor 4000 from Perceptive Biosystems) using the following two settings: 460/40 nm emission with 395/25 nm excitation, and 530/25 nm emission with 395/25 nm excitation. • s.

CC1=C(/C=C/C(C)=C/C=C/C(C)=C/C(=O)O)C(C)(C)CCC1 [retinoic acid, reference compound]
changes in BLA activity after treatment: none showed changes in BLA activity
